The source of these data is PMC7819943, “Rice protein-binding microarrays: a tool to detect cis-acting elements near promoter regions in rice”.

Protein sequences, listed by entry. Tags and fused reporters are not part of them.
UniProt Q0JBA9, entry or part of it: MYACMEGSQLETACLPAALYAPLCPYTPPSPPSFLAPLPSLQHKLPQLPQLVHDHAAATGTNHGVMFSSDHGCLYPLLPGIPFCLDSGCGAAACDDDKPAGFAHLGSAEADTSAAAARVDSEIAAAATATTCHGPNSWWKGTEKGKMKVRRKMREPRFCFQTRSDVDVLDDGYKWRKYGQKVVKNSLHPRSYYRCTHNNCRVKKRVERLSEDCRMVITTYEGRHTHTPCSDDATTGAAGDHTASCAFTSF

The list shows a part of the results.

The experiment addresses OsWRKY34 (Oryza sativa, UniProt Q0JBA9 1-250). As to the kind of experiment: protein-binding microarray (RPBM); PBS, 2% BSA, 51.3 ng/ul salmon testes DNA, 50 uM zinc acetate, 200 nM TF, 25 C, 1 h; high values mean tight binding. The following applies: protein: recombinant; tags: N-terminal polyhistidine and DsRed monomer fusion (pET32a); label: CyDye5-dUTP incorporated in the synthesized complementary strand; 3' TTTTT single-stranded linker to array surface; dsDNA, one strand shown. Put shortly:
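The binding signal for each feature is its fluorescence intensity in arbitrary units. An Axon 4000B scanner was used to read a custom Agilent array that had been made double-stranded with Cy5-dUTP primer extension, blocked with 2% BSA, incubated at 25 °C for 1 h with 200 nM protein in PBS, 2% BSA, salmon testes DNA and 50 µM zinc acetate, and washed. The protein was an N-terminal polyhistidine–DsRed transcription factor fusion from E. coli BL21-CodonPlus, purified on Ni–NTA.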
With “GTCCGCTTTTATCCGCTCGCAACCCGGCCAACACAACATTCGGAGTCACCTAGTGCAG”, the binding signal is 15900 fluorescence intensity (a.u.). The figure for “TTGGTTGGTTGGTTTGGTGGGCGGCGGTGCCGGAGGAAGACGGAGTCACCTAGTGCAG” is 21900 fluorescence intensity (a.u.); for “CCCGCCTCACCTCACCTCACCTCACCTCTCACTCACTCACCGGAGTCACCTAGTGCAG” it is 10100 fluorescence intensity (a.u.); for “CATGTCCGGTTTTCTTTGCCTTGCTTTGATCAATTCATCTCGGAGTCACCTAGTGCAG” it is 15300 fluorescence intensity (a.u.). As for “CTCTCCTCGAGTCTCCTCTCCACCCTGGCAGTGTTATTGTCGGAGTCACCTAGTGCAG”, the figure is 8750 fluorescence intensity (a.u.); as for “TAACTAACACTCTCTCTAAAATTCACATTTTCTCTCATTTCGGAGTCACCTAGTGCAG”, 8760 fluorescence intensity (a.u.). The figure for “GCCCATTTTTTTTTCTTTTTCCAATTTTCAAATTTATTCTCGGAGTCACCTAGTGCAG” is 8610 fluorescence intensity (a.u.); for “TATCGATACGTGACCGTGTTGCCGTTTCTTCTTTCTTTTTCGGAGTCACCTAGTGCAG” it is 8410 fluorescence intensity (a.u.); for “AAGTAGTTTGTTCTCACTCCTCTTTGTTATAGTGTTATACCGGAGTCACCTAGTGCAG” it is 8820 fluorescence intensity (a.u.). Regarding “CTTTCTTTGTTTTCTTGCGCTTCCTCCTCGGCTGAGCTCACGGAGTCACCTAGTGCAG”, the binding signal is 8770 fluorescence intensity (a.u.). As for “AATTCTTCTCACATGCATGTCTTCCTGTCTCACGATAGCACGGAGTCACCTAGTGCAG”, the figure is 10100 fluorescence intensity (a.u.); as for “CTCCTCCGCCGTTTTCTCCTTCTCTAAGCTACCGCCGCCGCGGAGTCACCTAGTGCAG”, 13000 fluorescence intensity (a.u.); as for “GCCCGCGTTTTCTCCGGCCACCAACCATGGCCGCCGGCCGCGGAGTCACCTAGTGCAG”, 9090 fluorescence intensity (a.u.). The figure for “TTCTCCTGGTCGTGGACGCGGCGCGGCGTCGGATTCTTCCCGGAGTCACCTAGTGCAG” is 8050 fluorescence intensity (a.u.); for “GGTTGCCGCCACACCAAGGAGGGTTTTTTTCTCGGTCAAACGGAGTCACCTAGTGCAG” it is 8990 fluorescence intensity (a.u.); for “TAATTCATCGCCACGTACAAACGGACATCTGCTTTCTGAACGGAGTCACCTAGTGCAG” it is 9360 fluorescence intensity (a.u.).

As to “GCTAACTCCGTGTGACCATGTTGCCTACGATTTCCCTGAACGGAGTCACCTAGTGCAG”, the binding signal is 9660 fluorescence intensity (a.u.).

As for “CTTAAACCGCAATAACATATATAGCGTGTCCTTTAACTTGCGGAGTCACCTAGTGCAG”, the binding signal was 8570 fluorescence intensity (a.u.). Turning to “TTATAATTTACCGTTTTTAATAATTTGTACTGGCATATCACGGAGTCACCTAGTGCAG”, the binding signal was 8040 fluorescence intensity (a.u.). In the case of “GCCAAGTCTCATTTTTGTCATGTATGGTGTTTACTGATTACGGAGTCACCTAGTGCAG”, the binding signal is 12400 fluorescence intensity (a.u.).

For the sequence “CACTCCGCTACCCCACCTCTCCGGAAGCTTTCATTCGCGACGGAGTCACCTAGTGCAG”, the binding signal is 8192 fluorescence intensity (a.u.).

As for “GTTCATACGAATTTCTTCATCACCACCTTCACAAATCCCTCGGAGTCACCTAGTGCAG”, the binding signal is 8030 fluorescence intensity (a.u.). As for “CATGATTTGACAATGGGTGGGTTCGGATGAGATTGCCGTGCGGAGTCACCTAGTGCAG”, the figure is 8860 fluorescence intensity (a.u.); as for “GGCGGCTCATCATCGGCTTTCATCGCCTCGCCTCTTCGTTCGGAGTCACCTAGTGCAG”, 15100 fluorescence intensity (a.u.). “TTTCTCTGGCCTAGTTTGTTTATTTATCTTTTATCCCCTTCGGAGTCACCTAGTGCAG”: the binding signal is 8240 fluorescence intensity (a.u.).

Regarding “TGCTACTTTGACTAGAAATATTTATAAATGTAGTATATTTCGGAGTCACCTAGTGCAG”, the binding signal is 8570 fluorescence intensity (a.u.). “GCAGCTCCTATCTGGCCAGCTTTTATTTAGCTGTTCTTCTCGGAGTCACCTAGTGCAG”: the binding signal was 9040 fluorescence intensity (a.u.). The figure for “AATTTTTTTTGGGGTTGCTGCTGTTTTTTTTGTGGAGGTTCGGAGTCACCTAGTGCAG” is 9450 fluorescence intensity (a.u.); for “TGTTGCATTTTTACTCGTTGGCCGGCACGACTGCCTCTGACGGAGTCACCTAGTGCAG” it is 9740 fluorescence intensity (a.u.); for “TTGTCTCACCACTGCTTCGCATCCTCCGCCGCCGCCTCACCGGAGTCACCTAGTGCAG” it is 11000 fluorescence intensity (a.u.). Consider “CATGCTGCCAACTCTGCAATTCTGATGTCCATTGCCAATCCGGAGTCACCTAGTGCAG”, for which the binding signal is 9870 fluorescence intensity (a.u.). Turning to “TCGACCTGTCGCTCATCGACGGGTTCAACGTGCCGGTGAGCGGAGTCACCTAGTGCAG”, the binding signal was 12400 fluorescence intensity (a.u.).

As to “ATGGGGAAATTTTGCAGCTCTTGCTCTTTGTGCCGTAGCTCGGAGTCACCTAGTGCAG”, the binding signal is 8100 fluorescence intensity (a.u.). As for “TAATGGGGCATATTCGTGGGTGTGTAAGTATAACGTTATACGGAGTCACCTAGTGCAG”, the figure is 9830 fluorescence intensity (a.u.); as for “GATCGAAACTAGTTAGGGTTGGAAGGGGCATTTTAGTATTCGGAGTCACCTAGTGCAG”, 9940 fluorescence intensity (a.u.); as for “AGGGGCGGATACGTGATTTCTAAGAGGCGAGCTTCTTCTCCGGAGTCACCTAGTGCAG”, 8290 fluorescence intensity (a.u.). For the sequence “TTCCTTGCTGCTCTGCTTTTTCTCCTGCTACGCGTGATCACGGAGTCACCTAGTGCAG”, the binding signal is 14400 fluorescence intensity (a.u.). Consider “ATTTCTCATAATGTTCACTGTTACCTCGTCGTATGCAACACGGAGTCACCTAGTGCAG”, for which the binding signal is 9940 fluorescence intensity (a.u.). With “AACGTTGGTTAAAAAGTCAACGGCGTCATACATTAACATACGGAGTCACCTAGTGCAG”, the binding signal was 11300 fluorescence intensity (a.u.).

As for “GGTTGGGGAAGGGAAGGGAAGGGAGAGGAGAGGGGCTCGCCGGAGTCACCTAGTGCAG”, the binding signal was 9900 fluorescence intensity (a.u.).

With “CTTCGCCTCCGCGCCGCCGCCGCCTCTGTCCGTTCCGCCGCGGAGTCACCTAGTGCAG”, the binding signal was 8510 fluorescence intensity (a.u.). On to “GGGCCTGGACTTGTTCTCCTTGTCGGATTCCAGCCCATATCGGAGTCACCTAGTGCAG”, for which the binding signal is 9260 fluorescence intensity (a.u.).
